Data reported in PubChem BioAssay AID220 (DTP/NCI, 2004).
The list does not hold the whole screen: it covers a few groups of compounds. Other doses and runs of a compound may be missing. T/C is the treated group as % of the vehicle group. Schedule codes are those of the source, taken here to give the interval after Q, in days (D) or hours (H), and the number of doses after X. Some doses were run more than once; their values stand side by side, smallest first. Some entries show no survivor count and are marked so; the dose need not have been tolerated. Some T/C values are followed by the survivors on the day toxicity was checked; where neither a count nor a note follows, no animal had died by that day. Some T/C values are negative: the treated tumours shrank. Some doses have a count of surviving animals in place of a T/C: the source holds a T/C of zero for them, seemingly a mark for toxic or unscored doses. Survivors were counted at the toxicity check; its day is shown where the source gives one, and later deaths do not show.

Tested on: CD8F1 mice, subcutaneous mammary adenocarcinoma, T/C%
Assay: NCI In Vivo Anticancer Drug Screen. Data for tumor model Mammary Adenocarcinoma CD8F1 (subcutaneous) in CD8F1
Details: higher T/C = larger tumour
Method: The antitumor activity of compounds was measured in mice bearing transplantable tumors. Survival or tumor size were measured and the results are expressed as the measurement made in the treated group (T) divided by the measurement made in the vehicle treated control group (C). The tumor model used in this assay is Mammary Adenocarcinoma CD8F1 (subcutaneous) in CD8F1

[1] = T/C endpoint: median tumor weight (est.), dose: 12.5 mg/kg/injection, schedule: Q07DX005 (ip), vehicle: Klucel (hydroxypropylcellulose) (HPC), evaluation day not shown
[2] = T/C endpoint: median tumor weight (est.), dose: 25.0 mg/kg/injection, schedule: Q07DX005 (ip), vehicle: Klucel (hydroxypropylcellulose) (HPC), evaluation day not shown
[3] = T/C endpoint: median tumor weight (est.), dose: 50.0 mg/kg/injection, schedule: Q07DX005 (ip), vehicle: Klucel (hydroxypropylcellulose) (HPC), evaluation day not shown

O=NN(CCSCCCl)C(=O)NC1CCCCC1
T/C (T/C endpoint: median tumor weight change, dose: 12.5 mg/kg/injection, schedule: Q01DX001 (ip), vehicle: saline with Tween-80, evaluated on day 28): 209 % of control | T/C (T/C endpoint: median tumor weight change, dose: 15.62 mg/kg/injection, schedule: Q01DX001 (ip), vehicle: saline with Tween-80, evaluated on day 31): 32 % of control | T/C (T/C endpoint: median tumor weight change, dose: 25.0 mg/kg/injection, schedule: Q01DX001 (ip), vehicle: saline with Tween-80, evaluated on day 28): 136 % of control | T/C (T/C endpoint: median tumor weight change, dose: 25.0 mg/kg/injection, schedule: Q01DX001 (ip), vehicle: saline with Tween-80, evaluated on day 33): 98 % of control | T/C (T/C endpoint: median tumor weight change, dose: 25.0 mg/kg/injection, schedule: Q01DX001 (ip), vehicle: saline, evaluated on day 40): 102 % of control | T/C (T/C endpoint: median tumor weight change, dose: 50.0 mg/kg/injection, schedule: Q01DX001 (ip), vehicle: saline with Tween-80, evaluated on day 33): 90 % of control | T/C (T/C endpoint: median tumor weight change, dose: 50.0 mg/kg/injection, schedule: Q01DX001 (ip), vehicle: saline, evaluated on day 40): 135 % of control | T/C (T/C endpoint: median tumor weight change, dose: 100.0 mg/kg/injection, schedule: Q01DX001 (ip), vehicle: saline with Tween-80, evaluated on day 33): 7 % of control | T/C (T/C endpoint: median tumor weight change, dose: 100.0 mg/kg/injection, schedule: Q01DX001 (ip), vehicle: saline, evaluated on day 40): 124 % of control | T/C (T/C endpoint: median tumor weight change, dose: 200.0 mg/kg/injection, schedule: Q01DX001 (ip), vehicle: saline, evaluated on day 40): 116 % of control

ClCCN(CCCl)c1ccccc1
T/C (T/C endpoint: median tumor weight (est.), dose: 0.7 mg/kg/injection, schedule: Q07DX005 (ip), vehicle: Klucel (hydroxypropylcellulose) (HPC), evaluated on day 30): 75 % of control | T/C (T/C endpoint: median tumor weight (est.), dose: 1.5 mg/kg/injection, schedule: Q07DX005 (ip), vehicle: Klucel (hydroxypropylcellulose) (HPC), evaluated on day 30): 150 % of control | T/C (T/C endpoint: median tumor weight (est.), dose: 3.0 mg/kg/injection, schedule: Q07DX005 (ip), vehicle: Klucel (hydroxypropylcellulose) (HPC), evaluated on day 30): 56 % of control | T/C (T/C endpoint: median tumor weight (est.), dose: 3.12 mg/kg/injection, schedule: Q07DX005 (ip), vehicle: saline with Tween-80, evaluation day not shown): 58 % of control [survivor count not shown] | T/C (T/C endpoint: median tumor weight (est.), dose: 6.0 mg/kg/injection, schedule: Q07DX005 (ip), vehicle: Klucel (hydroxypropylcellulose) (HPC), evaluated on day 30): 82 % of control | T/C (T/C endpoint: median tumor weight (est.), dose: 6.25 mg/kg/injection, schedule: Q07DX005 (ip), vehicle: Klucel (hydroxypropylcellulose) (HPC), evaluated on day 30): 79 and 100 % of control | T/C (T/C endpoint: median tumor weight (est.), dose: 6.25 mg/kg/injection, schedule: Q07DX005 (ip), vehicle: saline with Tween-80, evaluation day not shown): 58 [survivor count not shown] and 59 % of control [survivor count not shown] | T/C (T/C endpoint: median tumor weight (est.), dose: 12.5 mg/kg/injection, schedule: Q01DX005 (ip), vehicle: saline with Tween-80, evaluation day not shown): 10 % of control [survivor count not shown] | T/C (T/C endpoint: median tumor weight (est.), dose: 12.5 mg/kg/injection, schedule: Q07DX005 (ip), vehicle: Klucel (hydroxypropylcellulose) (HPC), evaluated on day 30): 13 and 54 % of control | T/C [1]: 48 % of control [survivor count not shown] | T/C (T/C endpoint: median tumor weight (est.), dose: 12.5 mg/kg/injection, schedule: Q07DX005 (ip), vehicle: saline with Tween-80, evaluation day not shown): 98 % of control [survivor count not shown] | T/C (T/C endpoint: median tumor weight (est.), dose: 15.0 mg/kg/injection, schedule: Q07DX005 (ip), vehicle: Klucel (hydroxypropylcellulose) (HPC), evaluated on day 30): 31 and 51 % of control | T/C (T/C endpoint: median tumor weight (est.), dose: 25.0 mg/kg/injection, schedule: Q07DX005 (ip), vehicle: Klucel (hydroxypropylcellulose) (HPC), evaluated on day 30): 2 and 18 % of control | T/C [2]: 19 % of control [survivor count not shown] | T/C (T/C endpoint: median tumor weight (est.), dose: 25.0 mg/kg/injection, schedule: Q07DX005 (ip), vehicle: saline with Tween-80, evaluation day not shown): 22 % of control [survivor count not shown] | T/C (T/C endpoint: median tumor weight (est.), dose: 30.0 mg/kg/injection, schedule: Q07DX005 (ip), vehicle: Klucel (hydroxypropylcellulose) (HPC), evaluated on day 30): 6 and 14 % of control | T/C (T/C endpoint: median tumor weight (est.), dose: 50.0 mg/kg/injection, schedule: Q01DX005 (ip), vehicle: saline with Tween-80, evaluation day not shown): 1 % of control [survivor count not shown] | T/C (T/C endpoint: median tumor weight (est.), dose: 50.0 mg/kg/injection, schedule: Q07DX005 (ip), vehicle: Klucel (hydroxypropylcellulose) (HPC), evaluated on day 30): 9 % of control | T/C [3]: 4 % of control [survivor count not shown] | T/C (T/C endpoint: median tumor weight (est.), dose: 60.0 mg/kg/injection, schedule: Q07DX005 (ip), vehicle: Klucel (hydroxypropylcellulose) (HPC), evaluated on day 30): 6 % of control [7 of 10 alive on day 30] | survivor count (T/C endpoint: median tumor weight (est.), dose: 60.0 mg/kg/injection, schedule: Q07DX005 (ip), vehicle: Klucel (hydroxypropylcellulose) (HPC)): 3 of 10 on day 30 | T/C (T/C endpoint: median tumor weight (est.), dose: 100.0 mg/kg/injection, schedule: Q01DX005 (ip), vehicle: saline with Tween-80, evaluation day not shown): 1 % of control [survivor count not shown] | T/C (T/C endpoint: median tumor weight (est.), dose: 100.0 mg/kg/injection, schedule: Q07DX005 (ip), vehicle: Klucel (hydroxypropylcellulose) (HPC), evaluated on day 30): 4 % of control [8 of 10 alive on day 30] | survivor count (T/C endpoint: median tumor weight (est.), dose: 100.0 mg/kg/injection, schedule: Q07DX005 (ip), vehicle: Klucel (hydroxypropylcellulose) (HPC)): 0 of 10 on day 30 | survivor count (T/C endpoint: median tumor weight (est.), dose: 120.0 mg/kg/injection, schedule: Q07DX005 (ip), vehicle: Klucel (hydroxypropylcellulose) (HPC)): 0 of 10 on day 30 | survivor count (T/C endpoint: median tumor weight (est.), dose: 200.0 mg/kg/injection, schedule: Q07DX005 (ip), vehicle: Klucel (hydroxypropylcellulose) (HPC)): 0 of 10 on day 30 | T/C (T/C endpoint: median tumor weight change, dose: 15.62 mg/kg/injection, schedule: Q01DX001 (ip), vehicle: Klucel (hydroxypropylcellulose) (HPC), evaluated on day 30): 30 % of control | T/C (T/C endpoint: median tumor weight change, dose: 31.0 mg/kg/injection, schedule: Q01DX001 (ip), vehicle: Klucel (hydroxypropylcellulose) (HPC), evaluated on day 28): 60 % of control | T/C (T/C endpoint: median tumor weight change, dose: 31.25 mg/kg/injection, schedule: Q01DX001 (ip), vehicle: Klucel (hydroxypropylcellulose) (HPC), evaluated on day 30): 17 % of control [9 of 10 alive on day 30] | T/C (T/C endpoint: median tumor weight change, dose: 62.0 mg/kg/injection, schedule: Q01DX001 (ip), vehicle: Klucel (hydroxypropylcellulose) (HPC), evaluated on day 28): 12 % of control | T/C (T/C endpoint: median tumor weight change, dose: 62.5 mg/kg/injection, schedule: Q01DX001 (ip), vehicle: Klucel (hydroxypropylcellulose) (HPC), evaluated on day 30): -53 % of control [9 of 10 alive on day 30] | T/C (T/C endpoint: median tumor weight change, dose: 125.0 mg/kg/injection, schedule: Q01DX001 (ip), vehicle: Klucel (hydroxypropylcellulose) (HPC), evaluated on day 28): -52 % of control [7 of 9 alive on day 28] | survivor count (T/C endpoint: median tumor weight change, dose: 125.0 mg/kg/injection, schedule: Q01DX001 (ip), vehicle: Klucel (hydroxypropylcellulose) (HPC)): 5 of 10 on day 30 | survivor count (T/C endpoint: median tumor weight change, dose: 250.0 mg/kg/injection, schedule: Q01DX001 (ip), vehicle: Klucel (hydroxypropylcellulose) (HPC)): 0 of 10 on day 30 and 0 of 9 on day 28 | survivor count (T/C endpoint: median tumor weight change, dose: 500.0 mg/kg/injection, schedule: Q01DX001 (ip), vehicle: Klucel (hydroxypropylcellulose) (HPC)): 0 of 10 on day 30 and 1 of 9 on day 28

ClCCN(CCCl)c1ccc(Cl)cc1
T/C [1]: 116 % of control [survivor count not shown] | T/C [2]: 109 % of control [survivor count not shown] | T/C [3]: 131 % of control [survivor count not shown]
